{"sequences": {"note": "Chains of the proteins cited; added tags and fusions are not shown. Residues count along the entry.", "UniProt Q8WWA0, 19-298 V109D": "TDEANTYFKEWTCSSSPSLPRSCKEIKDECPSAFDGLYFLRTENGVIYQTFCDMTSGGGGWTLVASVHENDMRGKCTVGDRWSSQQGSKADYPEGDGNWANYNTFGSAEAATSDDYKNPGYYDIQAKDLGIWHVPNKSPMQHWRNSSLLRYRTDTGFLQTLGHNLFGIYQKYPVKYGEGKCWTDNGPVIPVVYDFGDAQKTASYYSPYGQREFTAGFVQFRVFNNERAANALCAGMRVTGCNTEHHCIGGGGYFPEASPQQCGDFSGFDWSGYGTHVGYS"}, "source": "patent US12123876B2", "about": "“Antibody binding to HEG1 and use of the antibody for detection and treatment of mesothelioma” (Kanagawa Prefectural Hospital Organization, priority 2016, dated 2024)", "biological_target": "recombinant human intelectin-1 (Homo sapiens, UniProt Q8WWA0, V109D)", "assay": "Biacore inhibition of intelectin binding to diol structure", "details": "inhibition of intelectin (0.5 μg/mL) binding, listed as (R)-1,2-propanediol", "protocol": "The binding between intelectin and the diol SEPHAROSE® (crosslinked, beaded-form of agarose) beads was inhibited in the presence of another compound with diol structure. An experiment was conducted in which binding of recombinant human intelectin-1 to a sensor chip including 3-Amino-1-propanediol fixed thereto via amino groups was measured by using a Biacore (GE Healthcare Bio-Sciences AB) in the presence of various compounds serially diluted, where intelectin was used with a final concentration of 0.5 μg/mL, and 10 mM HEPES buffer (pH 7.0) containing 1 mM CaCl2), 150 mM NaCl, and 0.03% TWEEN® 20 (polyethylene glycol sorbitan monolaurate, polyoxyethylenesorbitan monolaurate) was used as buffer for measurement, and the binding rate of intelectin was determined for each sample as the degree of binding of intelectin measured for a sample without addition of compound was defined as a binding rate of 100%.", "note": "Some of these results come from one statement about several compounds together. At least one compound was matched to its structure with a doubt left.", "data": [{"smiles": "C[C@@H](O)CO", "note": "[(R)-1,2-Propanediol]", "values": [{"measurement": "IC50", "value": "≤ 1000", "unit": "µM"}]}]}
